One assay concerns the target T1, HA-FOXM1 (UniProt Q08050).
T1 sequence: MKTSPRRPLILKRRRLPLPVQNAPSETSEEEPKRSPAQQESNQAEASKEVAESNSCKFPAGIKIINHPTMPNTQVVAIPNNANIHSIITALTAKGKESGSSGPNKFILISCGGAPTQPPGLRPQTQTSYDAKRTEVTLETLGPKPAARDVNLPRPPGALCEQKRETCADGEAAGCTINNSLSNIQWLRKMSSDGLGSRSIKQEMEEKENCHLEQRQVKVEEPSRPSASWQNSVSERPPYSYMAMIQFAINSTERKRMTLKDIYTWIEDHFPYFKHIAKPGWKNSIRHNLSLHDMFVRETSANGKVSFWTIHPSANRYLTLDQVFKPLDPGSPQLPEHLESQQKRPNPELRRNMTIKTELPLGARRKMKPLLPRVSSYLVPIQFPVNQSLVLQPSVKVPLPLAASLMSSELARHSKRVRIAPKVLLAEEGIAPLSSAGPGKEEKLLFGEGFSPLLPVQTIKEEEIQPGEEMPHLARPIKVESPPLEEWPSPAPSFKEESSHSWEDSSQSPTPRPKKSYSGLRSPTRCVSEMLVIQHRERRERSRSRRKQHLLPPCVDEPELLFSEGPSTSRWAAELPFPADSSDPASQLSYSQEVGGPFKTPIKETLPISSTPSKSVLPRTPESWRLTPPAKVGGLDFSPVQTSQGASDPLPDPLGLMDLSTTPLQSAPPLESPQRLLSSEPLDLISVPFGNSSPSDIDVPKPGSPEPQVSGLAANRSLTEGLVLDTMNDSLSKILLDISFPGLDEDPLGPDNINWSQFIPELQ
The assay is described as follows: co-IP; HEK293T cells transiently co-transfected with HA-FOXM1 and full-length or truncated GFP-STIL; immunoprecipitation with anti-HA antibody; Western blotting. In general terms: A western blot detects proteins with antibodies after separation by electrophoresis.

The target in assay [1] is T2, FOXM1 (Forkhead box protein M1), endogenous (human (endogenous in CL1-5)) (UniProt Q08050).
T2 sequence: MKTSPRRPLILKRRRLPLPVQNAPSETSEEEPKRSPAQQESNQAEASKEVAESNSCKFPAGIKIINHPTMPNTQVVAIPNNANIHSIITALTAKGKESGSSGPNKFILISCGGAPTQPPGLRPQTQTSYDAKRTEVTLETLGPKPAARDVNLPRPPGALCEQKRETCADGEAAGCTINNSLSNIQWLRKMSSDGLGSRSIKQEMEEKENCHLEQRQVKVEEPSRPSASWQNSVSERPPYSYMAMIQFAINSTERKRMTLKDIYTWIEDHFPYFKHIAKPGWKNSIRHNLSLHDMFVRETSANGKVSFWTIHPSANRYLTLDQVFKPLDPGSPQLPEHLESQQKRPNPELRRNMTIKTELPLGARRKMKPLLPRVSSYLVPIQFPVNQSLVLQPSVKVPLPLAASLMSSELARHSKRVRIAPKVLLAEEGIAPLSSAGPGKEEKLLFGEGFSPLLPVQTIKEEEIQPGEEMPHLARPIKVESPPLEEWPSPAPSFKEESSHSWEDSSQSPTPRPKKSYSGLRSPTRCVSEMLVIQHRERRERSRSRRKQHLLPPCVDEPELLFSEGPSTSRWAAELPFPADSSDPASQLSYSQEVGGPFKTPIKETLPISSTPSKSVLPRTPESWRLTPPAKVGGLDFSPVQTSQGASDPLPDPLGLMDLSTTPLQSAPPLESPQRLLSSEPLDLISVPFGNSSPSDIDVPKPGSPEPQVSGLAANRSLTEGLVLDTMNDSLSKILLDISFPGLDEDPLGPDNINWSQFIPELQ
The assay is described as follows: co-IP; endogenous proteins, CL1-5 cells lysed in RIPA buffer; immunoprecipitation with anti-STIL or anti-FOXM1 antibody (4 °C, 1 h), protein A/G agarose overnight at 4 °C; Western blotting.

No constants are given. Whether binding was seen depends on the method and setting. Binding seen in cells or lysates may run through a third protein. Some results given as binding are weak or reduced against the parent protein; the word gives no strength. For part of these data: Sequences can lack the tags named with a protein.

B1: GFP-STIL (a.a. 1-1061) (domain or fragment, UniProt Q15468-2 1-1061)
chain: MEPIYPFARPQMNTRFPSSRMVPFHFPPSKCALWNPTPTGDFIYLHLSYYRNPKLVVTEKTIRLAYRHAKQNKKNSSCFLLGSLTADEDEEGVTLTVDRFDPGREVPECLEITPTASLPGDFLIPCKVHTQELCSREMIVHSVDDFSSALKALQCHICSKDSLDCGKLLSLRVHITSRESLDSVEFDLHWAAVTLANNFKCTPVKPIPIIPTALARNLSSNLNISQVQGTYKYGYLTMDETRKLLLLLESDPKVYSLPLVGIWLSGITHIYSPQVWACCLRYIFNSSVQERVFSESGNFIIVLYSMTHKEPEFYECFPCDGKIPDFRFQLLTSKETLHLFKNVEPPDKNPIRCELSAESQNAETEFFSKASKNFSIKRSSQKLSSGKMPIHDHDSGVEDEDFSPRPIPSPHPVSQKISKIQPSVPELSLVLDGNFIESNPLPTPLEMVNNENPPLINHLEHLKPLQPQLYDEKHSPEVEAGEPSLRGIPNQLNQDKPALLRHCKVRQPPAYKKGNPHTRNSIKPSSHNGPSHDIFEKLQTVSAGNVQNEEYPIRPSTLNSRQSSLAPQSQPHDFVFSPHNSGRPMELQIPTPPLPSYCSTNVCRCCQHHSHIQYSPLNSWQGANTVGSIQDVQSEALQKHSLFHPSGCPALYCNAFCSSSSPIALRPQGDMGSCSPHSNIEPSPVARPPSHMDLCNPQPCTVCMHTPKTESDNGMMGLSPDAYRFLTEQDRQLRLLQAQIQRLLEAQSLMPCSPKTTAVEDTVQAGRQMELVSVEAQSSPGLHMRKGVSIAVSTGASLFWNAAGEDQEPDSQMKQDDTKISSEDMNFSVDINNEVTSLPGSASSLKAVDIPSFEESNIAVEEEFNQPLSVSNSSSLVVRKEPDVPVFFPSGQLAESVSMCLQTGPTGGASNNSETSEEPKIEHVMQPLLHQPSDNQKIYQDLLGQVNHLLNSSSKETEQPSTKAVIISHECTRTQNVYHTKKKTHHSRLVDKDCVLNATLKQLRSLGVKIDSPTKVKKNAHNVDHASVLACISPEAVISGLNCMSFANVGMSGLSPNGVDL
As to B1, the binding entry with HA-FOXM1 is “binds”.

B2: GFP-STIL (a.a. 437-1288) (domain or fragment, UniProt Q15468-2 437-1288)
chain: ESNPLPTPLEMVNNENPPLINHLEHLKPLQPQLYDEKHSPEVEAGEPSLRGIPNQLNQDKPALLRHCKVRQPPAYKKGNPHTRNSIKPSSHNGPSHDIFEKLQTVSAGNVQNEEYPIRPSTLNSRQSSLAPQSQPHDFVFSPHNSGRPMELQIPTPPLPSYCSTNVCRCCQHHSHIQYSPLNSWQGANTVGSIQDVQSEALQKHSLFHPSGCPALYCNAFCSSSSPIALRPQGDMGSCSPHSNIEPSPVARPPSHMDLCNPQPCTVCMHTPKTESDNGMMGLSPDAYRFLTEQDRQLRLLQAQIQRLLEAQSLMPCSPKTTAVEDTVQAGRQMELVSVEAQSSPGLHMRKGVSIAVSTGASLFWNAAGEDQEPDSQMKQDDTKISSEDMNFSVDINNEVTSLPGSASSLKAVDIPSFEESNIAVEEEFNQPLSVSNSSSLVVRKEPDVPVFFPSGQLAESVSMCLQTGPTGGASNNSETSEEPKIEHVMQPLLHQPSDNQKIYQDLLGQVNHLLNSSSKETEQPSTKAVIISHECTRTQNVYHTKKKTHHSRLVDKDCVLNATLKQLRSLGVKIDSPTKVKKNAHNVDHASVLACISPEAVISGLNCMSFANVGMSGLSPNGVDLSMEANAIALKYLNENQLSQLSVTRSNQNNCDPFSLLHINTDRSTVGLSLISPNNMSFATKKYMKRYGLLQSSDNSEDEEEPPDNADSKSEYLLNQNLRSIPEQLGGQKEPSKNDHEIINCSNCESVGTNADTPVLRNITNEVLQTKAKQQLTEKPAFLVKNLKPSPAVNLRTGKAEFTQHPEKENEGDITIFPESLQPSETLKQMNSMNSVGTFLDVKRLRQLPKLF
For B2, the binding result with HA-FOXM1 is recorded as “binds”.

B3: STIL (SCL/TAL1-interrupting locus), endogenous (protein, UniProt Q15468 1-1287)
chain: MEPIYPFARPQMNTRFPSSRMVPFHFPPSKCALWNPTPTGDFIYLHLSYYRNPKLVVTEKTIRLAYRHAKQNKKNSSCFLLGSLTADEDEEGVTLTVDRFDPGREVPECLEITPTASLPGDFLIPCKVHTQELCSREMIVHSVDDFSSALKALQCHICSKDSLDCGKLLSLRVHITSRESLDSVEFDLHWAAVTLANNFKCTPVKPIPIIPTALARNLSSNLNISQVQGTYKYGYLTMDETRKLLLLLESDPKVYSLPLVGIWLSGITHIYSPQVWACCLRYIFNSSVQERVFSESGNFIIVLYSMTHKEPEFYECFPCDGKIPDFRFQLLTSKETLHLFKNVEPPDKNPIRCELSAESQNAETEFFSKASKNFSIKRSSQKLSSGKMPIHDHDSGVEDEDFSPRPIPSPHPVSQKISKIQPSVPELSLVLDGNFIESNPLPTPLEMVNNENPPLINHLEHLKPLQPQLYDEKHSPEVEAGEPSLRGIPNQLNQDKPALLRHCKVRQPPAYKKGNPHTRNSIKPSSHNGPSHDIFEKLQTVSAGNVQNEEYPIRPSTLNSRQSSLAPQSQPHDFVFSPHNSGRPMELQIPTPPLPSYCSTNVCRCCQHHSHIQYSPLNSWQGANTVGSIQDVQSEALQKHSLFHPSGCPALYCNAFCSSSSPIALRPQGDMGSCSPHSNIEPSPVARPPSHMDLCNPQPCTVCMHTPKTESDNGMMGLSPDAYRFLTEQDRQLRLLQAQIQRLLEAQSLMPCSPKTTAVEDTVQAGRQMELVSVEAQSSPGLHMRKGVSIAVSTGASLFWNAAGEDQEPDSQMKQDDTKISSEDMNFSVDINNEVTSLPGSASSLKAVDIPSFEESNIAVEEEFNQPLSVSNSSLVVRKEPDVPVFFPSGQLAESVSMCLQTGPTGGASNNSETSEEPKIEHVMQPLLHQPSDNQKIYQDLLGQVNHLLNSSSKETEQPSTKAVIISHECTRTQNVYHTKKKTHHSRLVDKDCVLNATLKQLRSLGVKIDSPTKVKKNAHNVDHASVLACISPEAVISGLNCMSFANVGMSGLSPNGVDLSMEANAIALKYLNENQLSQLSVTRSNQNNCDPFSLLHINTDRSTVGLSLISPNNMSFATKKYMKRYGLLQSSDNSEDEEEPPDNADSKSEYLLNQNLRSIPEQLGGQKEPSKNDHEIINCSNCESVGTNADTPVLRNITNEVLQTKAKQQLTEKPAFLVKNLKPSPAVNLRTGKAEFTQHPEKENEGDITIFPESLQPSETLKQMNSMNSVGTFLDVKRLRQLPKLF
As to B3, the binding result in assay [1] is “binds”.

The record behind these values is publication PMC8973879.
